# Percent effect of library compounds

From ChEMBL document CHEMBL3988442, “University of Dundee, Small-Polar-MMV Screening Library” (2021).

Results are given as percent effect.
The controls that fix the scale are not given in the record; negative values are as filed.
The compounds are a random part of those screened.
Two or more numbers in one place are separate tests of the same structure; such repeats can differ widely.
A dash means the value is not listed here; it may have been measured.

Toxoplasma: 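Assay of Toxoplasma gondii numbers, read through their beta-galactosidase reporter with a colour substrate. Compounds at 10 µM. The record gives no direction; the compounds picked for IC50 retests had high values, so higher reads as fewer parasites. About 67,000 compounds were tested under these conditions; 0.38% (about 260) showed 50% or more at least once.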
T. brucei: 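Whole-parasite assay of Trypanosoma brucei over 72 hours; the read-out is not stated. Tested at 30 µM. Higher reads as stronger inhibition (inferred: compounds with an IC50 in retests scored well above the rest). Values scatter widely below zero; nearly all retest evidence comes from the higher of the two concentrations used. Size under these conditions: about 64,000 compounds, about 940 of them at 50% or above in at least one test.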
Leishmania in macrophages: 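Cell assay of Leishmania donovani living inside macrophages; the read-out is not stated. Concentration: 30 µM. Higher reads as stronger inhibition (inferred: compounds with an IC50 in retests scored well above the rest). Of about 69,000 compounds tested this way, about 1,000 (1.5%) reached 50% or more in at least one test.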

SMILES	Toxoplasma	T. brucei	Leishmania in macrophages
CC(=O)N1CCC(c2nccnc2Nc2ncc(C)s2)CC1	9.638	-4.029	-7.153 & 16.81
COc1c(CNCc2ccnc(N3CCCCC3)c2)c(C)nn1C	7.982	8.489	26.43
CCn1nnc2c1C(COCC(=O)N(C)C)CN(Cc1ccoc1)C2 (stereo not given)	16.92	-50.1	-5.366
Cc1nn(CCO)c(C)c1CNC1CCc2c(Cl)cccc21 (stereo not given)	-4.185	19.66	36.6
CNC(=O)C1Cn2ccnc2C2(CCN(Cc3cccc(C)n3)CC2)O1.O=C(O)C(F)(F)F (stereo not given)	-1.668	-	-9.841
O=C1OCCN1Cc1cc(C(F)(F)F)ccc1F	1.66	-7.76	12.74
Cc1noc(C)c1CCCNC(=O)C1CCN(C(=O)C2CCC2)CC1	-5.204	-14.98	7.258
CCc1nccn1-c1cccc(C2CCN(C(=O)COC)CC2)n1	-4.739	13.14	17.44
CCCN1CCC2(C1)c1ccccc1S(=O)(=O)N2Cc1ccc(F)cc1 (stereo not given)	-0.2989	27.01	38.62
CSCC(CCO)NC(=O)Nc1cccc(Br)c1 (stereo not given)	0.6568	-65.46	18.76
CN1CCCC(c2nc3c([nH]2)CC(C)(C)CNC3=O)C1 (stereo not given)	15.44	-20.57	13.33
COCCC1CN(Cc2cn(CCC(N)=O)c3ccccc23)CCO1 (stereo not given)	-8.088	-20.07	4.954
[H][C@@]12CNC[C@]1([H])N(Cc1ccoc1)CCO2	-9.278	-	10.76
CCCN1CCCn2nc(CNC(=O)CCc3scnc3C)cc2C1	3.373	-6.343	19.97
[H][C@]12CCN(S(C)(=O)=O)[C@@]1([H])C[C@@H](C(=O)Nc1nc(C)cs1)O2	-10.03	0.7874	37.69
CC1CCN(c2ncc3c(n2)CN(c2ccccc2)C3=O)CC1	17.63	-17.67	-0.07245
CCn1cc(CN2CCCN(C(=O)c3ccoc3)CC2)cn1	-24.35	-	-3.128
CC1CN(C(=O)c2ccn(-c3cccc(Cl)c3)n2)CCO1 (stereo not given)	1.694	28.39	28.68
O=S(=O)(c1ccccc1Br)N1CCC2(CC1)OCCS2	7.402	7.65	-12.48
CCc1noc(C2CC(=O)N(CCN(C)C)C2)n1 (stereo not given)	-18.55	-1.282	25.41
CCn1cc2c(n1)CN(Cc1cnn(C)c1)CC2COCC1CC1.O=C(O)C(F)(F)F (stereo not given)	2.448	-20.82	37.74
Cc1cc(CS(=O)(=O)C(C)C(=O)N(C)c2ccccc2)on1 (stereo not given)	0.1619	-11.17	59.38
CCCN1CCN(C(=O)c2cccnc2-n2cncn2)CC1	-1.643	-36.31	27.73
CC(C)(C)c1n[nH]c(C2CN(C(=O)Cn3ccccc3=O)CCO2)n1 (stereo not given)	-10.99	9.963	-11.67
COCCNC(=O)NCc1ccc(-n2ccc(C(F)(F)F)n2)cc1	-18.81	11.03	18.61
Cl.OC1CCN(c2cncc(CCC3CCCN3)n2)CC1 (stereo not given)	-3.821	-6.285	12.88
O=C(c1cccnc1)N1CCC2(CNS(=O)(=O)c3cnccc3O2)C1 (stereo not given)	-2.559	-	9.418
O=C(O)C(F)(F)F.[H][C@@]12CN(Cc3cccs3)CCO[C@]1([H])CN(S(=O)(=O)C1CC1)C2	-1.436	-26.37	9.712
N#Cc1c(N2CCOCC2)nsc1-c1cccnc1	11.63	-0.8992	12.53
COc1ccc(S(=O)(=O)NCC(O)c2sccc2C)cc1Cl (stereo not given)	28.19	5.482	22.18 & 11.59
Cn1nc(CNC(=O)C2CCN(S(C)(=O)=O)CC2)cc1C1CC1	1.996	-24.28	-12.4
CCCN1CCC(CC(=O)NCc2cc(O)ncn2)CC1	8.285	-52.97	-13.35
CS(=O)(=O)N1CC[C@]2(C[C@H](Oc3ccccn3)CO2)C1.O=C(O)C(F)(F)F	8.958	-112.5	31.23
COc1ccc2c(c1)C(C(=O)N(C)CCc1cnn(C)c1)CC(=O)N2 (stereo not given)	-2.612	-2.926	-0.5269
O=S(=O)(NCCc1c[nH]c2cc(F)ccc12)C1CCOC1 (stereo not given)	-7.683	-9.832	7.967
COc1ccc(-c2cc(C3CCCCCN3S(C)(=O)=O)on2)cc1 (stereo not given)	13.5	-10.65	-10.47
Cn1c(CCNc2nccnc2C#N)nc2cc(Cl)ccc21	2.456	-15.32	8.115
CCN(Cc1ccc(OC)c(F)c1)Cc1nc2c(cnn2C)c(=O)[nH]1	3.667	-	-7.416
O=C(CN1CCCC1Cn1cncn1)NCCOc1cccc(F)c1 (stereo not given)	-6.842	-12.42	19.06
COc1ccc(CN2CCC3(CC2)CCN(CC(C)C)C3=O)cc1.O=C(O)C(F)(F)F	1.795	0.8917	47.38
[H][C@@]12COC[C@]1(CNC(=O)c1ccco1)CN(Cc1cccc(F)c1)C2	-3.339	-22.89	61.24
CS(=O)(=O)c1ccc(NC(=O)NC2(c3ccccc3)CCC2)cc1	7.733	-	12.48
CC(O)CN1CCN(Cc2cccc(C(=O)N(C)C)c2)CC1 (stereo not given)	5.816	11.55	42.88
Cc1cc(N2CCCC(c3n[nH]c4ncccc34)C2)ncn1 (stereo not given)	17.49	-4.286	31.21 & 9.491
Cc1ccc(CN(Cc2ccccn2)C2CC(C)(C)NC(C)(C)C2)s1.O=C(O)CC(O)(CC(=O)O)C(=O)O	-5.061	71.04	46.37
Cc1ccc(C(=O)NCCSCc2cccs2)cn1	28.3	-	-11.01

Repeated from the top, 6 entries:

SMILES	Toxoplasma	T. brucei	Leishmania in macrophages
CC(=O)N1CCC(c2nccnc2Nc2ncc(C)s2)CC1	9.638	-4.029	-7.153 & 16.81
COc1c(CNCc2ccnc(N3CCCCC3)c2)c(C)nn1C	7.982	8.489	26.43
CCn1nnc2c1C(COCC(=O)N(C)C)CN(Cc1ccoc1)C2 (stereo not given)	16.92	-50.1	-5.366
Cc1nn(CCO)c(C)c1CNC1CCc2c(Cl)cccc21 (stereo not given)	-4.185	19.66	36.6
CNC(=O)C1Cn2ccnc2C2(CCN(Cc3cccc(C)n3)CC2)O1.O=C(O)C(F)(F)F (stereo not given)	-1.668	-	-9.841
O=C1OCCN1Cc1cc(C(F)(F)F)ccc1F	1.66	-7.76	12.74